# Experimental data: PMC7114187 (Antiviral Research, 2008)
# Test system: influenza neuraminidase (NA), inactivated viral suspensions of influenza A/Udorn/72 (H3N2)
# Assay type: biochemical
row,Structure (SMILES),NA activity inhibition at 50 μM (%)
1,Clc1ccccc1C(c1ccccc1)(c1ccccc1)n1ccnc1 [Clotrimazole],94.5
2,Clc1ccc(COC(Cn2ccnc2)c2ccc(Cl)cc2Cl)cc1 (stereo not shown) [Econazole nitrate],96.4
3,Clc1ccc(COC(Cn2ccnc2)c2ccc(Cl)cc2Cl)c(Cl)c1 (stereo not shown) [Miconazole nitrate],100.0
4,Clc1ccc(CSC(Cn2ccnc2)c2ccc(Cl)cc2Cl)cc1 (stereo not shown) [Sulconazole nitrate],99.6
